Laboratory results taken from publication doi:10.1101/2025.10.27.684818.
No constants are given. Whether binding was seen depends on the method and setting. Binding seen in cells or lysates may run through a third protein. Sequences can lack the tags named with a protein.

Target: T1, LEA5-Cnluc (BH-lea5-Cnluc) (Arabidopsis thaliana) (UniProt P42759)
T1 sequence: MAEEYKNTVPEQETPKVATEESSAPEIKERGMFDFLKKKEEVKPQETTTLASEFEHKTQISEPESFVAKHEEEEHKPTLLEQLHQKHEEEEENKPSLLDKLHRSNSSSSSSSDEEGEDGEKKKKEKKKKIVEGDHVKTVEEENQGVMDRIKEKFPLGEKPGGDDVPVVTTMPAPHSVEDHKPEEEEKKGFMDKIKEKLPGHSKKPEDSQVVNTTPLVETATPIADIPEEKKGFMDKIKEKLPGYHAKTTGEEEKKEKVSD
Experiment: split reporter

binding: no binding
Substance: LEA11-Nnluc (ZKlea11-Nnluc) (Arabidopsis thaliana)
